PubChem BioAssay AID1259314 | Drosophila RNAi Screening Center | 2017

Screen: 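Modifiers of manganese chloride toxicity in fly cells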 (primary screen)
Cell system: Drosophila S2R+ cells
Reagents: long dsRNA against Drosophila genes
Duration: 5 days (4 days knock-down, then 1 day metal exposure)
Conditions: manganese chloride added to 15 mM for 24 hours
Measured: 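Luciferase ATP signal used as a proxy for viable cell number, reported as one averaged z-score per dsRNA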
Scale: mean ATP z-score: higher = more ATP than the plate average, more viable cells under manganese
Rule for the call: 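Called active when the mean ATP z-score is above 1.5 or below -1.5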
Calls: active = strong ATP change, up or down; inactive = no strong ATP change
This is an unselected part of about 3,100 reagents. In the full data, 289 (9.3%) got an active call. 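Active includes both higher and lower ATP than plate average; check the z-score sign for direction.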 Reagents against one gene are numbered here. Names joined by + are all predicted targets of the reagent. No sequences are given here. Not given: the amount of reagent.

Depletion of CG14223 (GeneID 32972) #1 resulted in: mean ATP z-score -1.29; inactive.
Knock-down of CG14223 (GeneID 32972) #2 came out at: mean ATP z-score 1.2; inactive.
After knock-down of Nckx30C (GeneID 45248) #1, the screen gave mean ATP z-score 0.457; inactive.
Against Nckx30C (GeneID 45248) #2 the deposit lists mean ATP z-score 0.494; inactive.
Against Nckx30C (GeneID 45248) #3, the values are mean ATP z-score -1.32; inactive.
ccb (GeneID 33096) showed mean ATP z-score -0.0524; inactive.
Against CG13796 (GeneID 34051), the values are mean ATP z-score -0.802; inactive.
ACXA (GeneID 53432) #1 gave mean ATP z-score 1; inactive.
Against ACXA (GeneID 53432) #2, the entry reads mean ATP z-score 0.0793; inactive.
CG1265 (GeneID 38517) #1 scored mean ATP z-score -0.475; inactive.
For CG1265 (GeneID 38517) #2 the deposit lists mean ATP z-score 0.225; inactive.
Against CG15890 (GeneID 32401) the deposit lists mean ATP z-score -0.105; inactive.
Against C1GalTA (GeneID 34215) the deposit lists mean ATP z-score -0.548; inactive.
Silencing of Nct (GeneID 42964) #1 gave: mean ATP z-score 0.0774; inactive.
Nct (GeneID 42964) #2 scored mean ATP z-score -0.326; inactive.
mAChR-C (GeneID 31626) #1 gave mean ATP z-score 0.0118; inactive.
Knock-down of mAChR-C (GeneID 31626) #2 resulted in: mean ATP z-score 0.626; inactive.
Silencing of CG9855 (GeneID 40556) gave: mean ATP z-score -0.279; inactive.
For CG1698 (GeneID 36006) #1, the entry reads mean ATP z-score -0.22; inactive.
Knock-down of CG1698 (GeneID 36006) #2 gave: mean ATP z-score -0.557; inactive.
After knock-down of CG7272 (GeneID 39670) #1 the results were mean ATP z-score -0.65; inactive.
Knock-down of CG7272 (GeneID 39670) #2 gave: mean ATP z-score 0.103; inactive.
After knock-down of CG31600 (GeneID 318834) #1, the screen gave mean ATP z-score 0.157; inactive.
With knock-down of CG31600 (GeneID 318834) #2, the screen gave mean ATP z-score -1.29; inactive.
Depletion of CG1636 + CG15343 resulted in: mean ATP z-score 1.92; active.
Against Sugb (GeneID 39314) #1 the deposit lists mean ATP z-score 0.279; inactive.
Sugb (GeneID 39314) #2 scored mean ATP z-score -0.993; inactive.
Against NijC (GeneID 41568) #1 the deposit lists mean ATP z-score 0.317; inactive.
NijC (GeneID 41568) #2 scored mean ATP z-score 1.58; active.
Against ppk20 (GeneID 43486) #1, the values are mean ATP z-score 0.181; inactive.
ppk20 (GeneID 43486) #2 scored mean ATP z-score 0.191; inactive.
Against CG13810 (GeneID 38278) #1 the deposit lists mean ATP z-score 0.157; inactive.
With knock-down of CG13810 (GeneID 38278) #2 the results were mean ATP z-score -0.0554; inactive.
For T48 (GeneID 43235), the values are mean ATP z-score 0.451; inactive.
Silencing of tank (GeneID 33684) resulted in: mean ATP z-score 0.457; inactive.
CG6293 (GeneID 41259) #1 showed mean ATP z-score 1.28; inactive.
With knock-down of CG6293 (GeneID 41259) #2, the record shows mean ATP z-score 0.809; inactive.
Depletion of NAAT1 (GeneID 31457) #1 resulted in: mean ATP z-score -0.452; inactive.
With knock-down of NAAT1 (GeneID 31457) #2, the record shows mean ATP z-score 1.17; inactive.

Reagents listed so far with an active call:
CG1636 + CG15343 → mean ATP z-score: 1.92; Outcome: active
NijC (GeneID 41568) #2 → mean ATP z-score: 1.58; Outcome: active

Additional records follow.
For CG33635 (GeneID 3772540), the entry reads mean ATP z-score 0.336; inactive.
After knock-down of RyR (GeneID 49090) #1, the record shows mean ATP z-score -0.838; inactive.
Depletion of RyR (GeneID 49090) #2 came out at: mean ATP z-score -0.403; inactive.
Depletion of Grl65a (GeneID 117342) #1 resulted in: mean ATP z-score 0.184; inactive.
Knock-down of Grl65a (GeneID 117342) #2 gave: mean ATP z-score -0.838; inactive.
For CG7514 (GeneID 38571) #1, the values are mean ATP z-score -1.44; inactive.
Against CG7514 (GeneID 38571) #2 the deposit lists mean ATP z-score 1.86; active.
Against Or85e (GeneID 41018) the deposit lists mean ATP z-score -0.573; inactive.
Ret (GeneID 43875) #1 scored mean ATP z-score -0.0127; inactive.
Ret (GeneID 43875) #2 scored mean ATP z-score 0.103; inactive.
For Ret (GeneID 43875) #3, the values are mean ATP z-score 0.25; inactive.
With knock-down of nac (GeneID 40981), the record shows mean ATP z-score -0.825; inactive.
Or59c (GeneID 37716) #1 gave mean ATP z-score 0.282; inactive.
Or59c (GeneID 37716) #2 scored mean ATP z-score 1.55; active.
Silencing of Zip99C (GeneID 43533) gave: mean ATP z-score 0.402; inactive.
For Kap-alpha1 (GeneID 40160) the deposit lists mean ATP z-score -1.63; active.
With knock-down of Ctl2 (GeneID 43440) the results were mean ATP z-score -0.304; inactive.
Depletion of CG12209 (GeneID 36077) gave: mean ATP z-score -0.223; inactive.
With knock-down of Fad2 (GeneID 44006) #1, the screen gave mean ATP z-score -2.78; active.
Fad2 (GeneID 44006) #2 gave mean ATP z-score -0.568; inactive.
Silencing of Cnx14D + Cnx99A came out at: mean ATP z-score 0.214; inactive.
